# These are yes or no findings as the source states them, for the method shown. For some assays here: A result given as binding can be weak or reduced; the word gives no strength. For some assays here: In cells and extracts the contact can be indirect.
# T1: female-specific storage protein SP1 of Bombyx mori (Bombyx mori) (UniProt P09179)
# T1 sequence: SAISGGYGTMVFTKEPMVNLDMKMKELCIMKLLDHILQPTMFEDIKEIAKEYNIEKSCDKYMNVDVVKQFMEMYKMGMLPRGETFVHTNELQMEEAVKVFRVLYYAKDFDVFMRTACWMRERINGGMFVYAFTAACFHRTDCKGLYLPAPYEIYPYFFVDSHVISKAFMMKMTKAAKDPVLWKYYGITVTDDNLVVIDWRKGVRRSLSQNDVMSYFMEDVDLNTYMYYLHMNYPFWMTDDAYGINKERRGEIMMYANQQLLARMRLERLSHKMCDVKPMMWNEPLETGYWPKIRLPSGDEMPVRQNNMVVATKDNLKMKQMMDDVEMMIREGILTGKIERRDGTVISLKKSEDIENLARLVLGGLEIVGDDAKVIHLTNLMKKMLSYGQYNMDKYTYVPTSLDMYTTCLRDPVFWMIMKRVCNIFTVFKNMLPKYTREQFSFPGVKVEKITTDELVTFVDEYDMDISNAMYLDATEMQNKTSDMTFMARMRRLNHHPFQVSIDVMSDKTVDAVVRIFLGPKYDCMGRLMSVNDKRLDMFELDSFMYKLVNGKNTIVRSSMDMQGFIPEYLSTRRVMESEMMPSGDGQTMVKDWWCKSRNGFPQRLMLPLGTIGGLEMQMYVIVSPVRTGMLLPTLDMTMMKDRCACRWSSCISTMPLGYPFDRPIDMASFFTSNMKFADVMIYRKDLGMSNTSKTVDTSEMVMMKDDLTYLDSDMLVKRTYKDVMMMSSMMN
# T2: storage protein SP2 of Bombyx mori (Bombyx mori) (UniProt P20613)
# T2 sequence: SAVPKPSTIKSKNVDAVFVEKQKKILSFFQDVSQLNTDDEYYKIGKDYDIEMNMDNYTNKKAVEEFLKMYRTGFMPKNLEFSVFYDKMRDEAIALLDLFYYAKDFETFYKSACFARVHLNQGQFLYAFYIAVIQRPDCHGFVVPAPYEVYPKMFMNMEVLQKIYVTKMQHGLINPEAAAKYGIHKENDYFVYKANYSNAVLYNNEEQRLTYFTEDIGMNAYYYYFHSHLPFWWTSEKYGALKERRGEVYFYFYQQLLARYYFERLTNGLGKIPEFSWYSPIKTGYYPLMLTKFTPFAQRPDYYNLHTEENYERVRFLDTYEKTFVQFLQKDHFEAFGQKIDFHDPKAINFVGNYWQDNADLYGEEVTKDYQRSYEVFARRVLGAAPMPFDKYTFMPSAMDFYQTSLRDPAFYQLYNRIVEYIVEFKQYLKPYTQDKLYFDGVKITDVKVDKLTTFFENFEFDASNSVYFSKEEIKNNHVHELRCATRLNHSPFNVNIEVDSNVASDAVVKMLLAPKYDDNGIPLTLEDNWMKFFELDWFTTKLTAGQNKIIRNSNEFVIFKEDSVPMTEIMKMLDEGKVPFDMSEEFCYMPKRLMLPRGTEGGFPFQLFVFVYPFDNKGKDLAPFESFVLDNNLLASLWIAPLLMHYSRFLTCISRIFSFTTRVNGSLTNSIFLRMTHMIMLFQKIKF
# Key:
# [1] = biological target: T1, female-specific storage protein SP1 of Bombyx mori (Bombyx mori); assay: far-Western, overlay or dot blot; about 1 μg pure SP1, SP2 and BSA separated by 10% SDS-PAGE, transferred to PVDF and renatured on the membrane; incubated with 30 μg pure LBD1; then standard western blotting; both purified
# [2] = biological target: T2, storage protein SP2 of Bombyx mori (Bombyx mori); assay: as above
# [3] = biological target: LBD1, first ligand binding domain of Bombyx mori vitellogenin receptor (BmVgR) (Bombyx mori); assay: co-IP; pure LBD1 incubated with pure SP1 or SP2, then with anti-LBD1 on protein A/G PLUS-agarose beads overnight; washing buffer 20 mM Tris-HCl pH 8.0, 150 mM NaCl, 5% glycerol; western blot of the precipitates; both purified
# [4] = biological target: His6-SUMO-LBD1 (first ligand binding domain of Bombyx mori vitellogenin receptor, tagged) (Bombyx mori); assay: pull-down; 2 mg His6-SUMO-LBD1 on 0.5 ml Ni-NTA agarose beads; 5 mL fresh silkworm larval hemolymph, 4°C, 2 h; washed with 20 mM Tris-HCl pH 8.0, 500 mM NaCl; eluted with 80-500 mM imidazole; band on SDS-PAGE identified by MALDI-TOF/TOF MS; only the target purified
# LBD1-ΔR1 (Bombyx mori) = assay: condition: SP1 210 μM in the syringe; mutant 16.9~20 μM in the cell; ITC; MicroCal VP-ITC, 25°C, 20 mM Tris-HCl pH 8.0, 150 mM NaCl; LBD1 or mutant in the cell (16.9~20 μM), SP1/SP2 in the syringe (210 μM); single-site binding model; both purified
# LBD1-ΔR3 (Bombyx mori) = assay: as above
# LBD1-ΔR2 (Bombyx mori) = assay: ITC; MicroCal VP-ITC, 25°C, 20 mM Tris-HCl pH 8.0, 150 mM NaCl; LBD1 or mutant in the cell (16.9~20 μM), SP1/SP2 in the syringe (210 μM); single-site binding model; both purified
# [5] = biological target: LBD1, first ligand binding domain of Bombyx mori vitellogenin receptor (BmVgR) (Bombyx mori); assay: as above
# LBD1-ΔR4 (Bombyx mori) = assay: as above
# [6] = biological target: LBD1, first ligand binding domain of Bombyx mori vitellogenin receptor (BmVgR) (Bombyx mori); assay: condition: SP2 210 μM in the syringe; LBD1 16.9~20 μM in the cell; ITC; MicroCal VP-ITC, 25°C, 20 mM Tris-HCl pH 8.0, 150 mM NaCl; LBD1 or mutant in the cell (16.9~20 μM), SP1/SP2 in the syringe (210 μM); single-site binding model; both purified
binding [1],binding [3],binding (LBD1-ΔR1 (Bombyx mori)),binding (LBD1-ΔR3 (Bombyx mori)),binding (LBD1-ΔR2 (Bombyx mori)),binding [5],binding (LBD1-ΔR4 (Bombyx mori)),binding [6],Molecule,binding [2],binding [4]
binds,–,–,–,–,–,–,–,"LBD1, first ligand binding domain of Bombyx mori vitellogenin receptor (BmVgR) (domain or fragment)",no binding (tested: 30 μg pure LBD1 on about 1 μg SP2),–
–,binds,no binding,no binding,binds,binds,binds,–,"female-specific storage protein SP1 of Bombyx mori (protein, UniProt P09179 16-747) SAISGGYGTMVFTKEPMVNLDMKMKELCIMKLLDHILQPTMFEDIKEIAKEYNIEKSCDKYMNVDVVKQFMEMYKMGMLPRGETFVHTNELQMEEAVKVFRVLYYAKDFDVFMRTACWMRERINGGMFVYAFTAACFHRTDCKGLYLPAPYEIYPYFFVDSHVISKAFMMKMTKAAKDPVLWKYYGITVTDDNLVVIDWRKGVRRSLSQNDVMSYFMEDVDLNTYMYYLHMNYPFWMTDDAYGINKERRGEIMMYANQQLLARMRLERLSHKMCDVKPMMWNEPLETGYWPKIRLPSGDEMPVRQNNMVVATKDNLKMKQMMDDVEMMIREGILTGKIERRDGTVISLKKSEDIENLARLVLGGLEIVGDDAKVIHLTNLMKKMLSYGQYNMDKYTYVPTSLDMYTTCLRDPVFWMIMKRVCNIFTVFKNMLPKYTREQFSFPGVKVEKITTDELVTFVDEYDMDISNAMYLDATEMQNKTSDMTFMARMRRLNHHPFQVSIDVMSDKTVDAVVRIFLGPKYDCMGRLMSVNDKRLDMFELDSFMYKLVNGKNTIVRSSMDMQGFIPEYLSTRRVMESEMMPSGDGQTMVKDWWCKSRNGFPQRLMLPLGTIGGLEMQMYVIVSPVRTGMLLPTLDMTMMKDRCACRWSSCISTMPLGYPFDRPIDMASFFTSNMKFADVMIYRKDLGMSNTSKTVDTSEMVMMKDDLTYLDSDMLVKRTYKDVMMMSSMMN",–,binds
–,no binding,–,–,–,–,–,no binding,"storage protein SP2 of Bombyx mori (protein, UniProt P20613 17-704) SAVPKPSTIKSKNVDAVFVEKQKKILSFFQDVSQLNTDDEYYKIGKDYDIEMNMDNYTNKKAVEEFLKMYRTGFMPKNLEFSVFYDKMRDEAIALLDLFYYAKDFETFYKSACFARVHLNQGQFLYAFYIAVIQRPDCHGFVVPAPYEVYPKMFMNMEVLQKIYVTKMQHGLINPEAAAKYGIHKENDYFVYKANYSNAVLYNNEEQRLTYFTEDIGMNAYYYYFHSHLPFWWTSEKYGALKERRGEVYFYFYQQLLARYYFERLTNGLGKIPEFSWYSPIKTGYYPLMLTKFTPFAQRPDYYNLHTEENYERVRFLDTYEKTFVQFLQKDHFEAFGQKIDFHDPKAINFVGNYWQDNADLYGEEVTKDYQRSYEVFARRVLGAAPMPFDKYTFMPSAMDFYQTSLRDPAFYQLYNRIVEYIVEFKQYLKPYTQDKLYFDGVKITDVKVDKLTTFFENFEFDASNSVYFSKEEIKNNHVHELRCATRLNHSPFNVNIEVDSNVASDAVVKMLLAPKYDDNGIPLTLEDNWMKFFELDWFTTKLTAGQNKIIRNSNEFVIFKEDSVPMTEIMKMLDEGKVPFDMSEEFCYMPKRLMLPRGTEGGFPFQLFVFVYPFDNKGKDLAPFESFVLDNNLLASLWIAPLLMHYSRFLTCISRIFSFTTRVNGSLTNSIFLRMTHMIMLFQKIKF",–,–
